The other results are listed elsewhere or left out.

By UniProt entry, the sequences of proteins in these tests, tags left out.
UniProt Q0JBA9, entry or part of it: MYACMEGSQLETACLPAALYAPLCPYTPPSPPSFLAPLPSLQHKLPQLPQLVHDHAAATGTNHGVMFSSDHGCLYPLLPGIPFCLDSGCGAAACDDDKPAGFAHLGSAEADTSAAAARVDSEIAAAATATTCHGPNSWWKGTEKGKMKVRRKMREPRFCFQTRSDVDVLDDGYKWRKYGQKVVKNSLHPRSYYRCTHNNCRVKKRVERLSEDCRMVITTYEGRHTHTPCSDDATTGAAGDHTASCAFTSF

The assay has as its target OsWRKY34 (Oryza sativa, UniProt Q0JBA9 1-250). As to the kind of experiment: protein-binding microarray (RPBM); PBS, 2% BSA, 51.3 ng/ul salmon testes DNA, 50 uM zinc acetate, 200 nM TF, 25 C, 1 h; high values mean tight binding. The note with it: protein: recombinant; tags: N-terminal polyhistidine and DsRed monomer fusion (pET32a); label: CyDye5-dUTP incorporated in the synthesized complementary strand; 3' TTTTT single-stranded linker to array surface; dsDNA, one strand shown. The procedure, abridged: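 The binding signal is fluorescence intensity per feature, in arbitrary units, read on an Axon 4000B scanner. Polyhistidine- and DsRed-tagged transcription factors (N-terminal fusions) from E. coli BL21-CodonPlus were purified on Ni–NTA and applied at 200 nM for 1 h at 25 °C to a double-stranded, BSA-blocked custom Agilent array in buffer with 50 µM zinc acetate.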
As for “AACTTGGTGGCTTTATGCTCCCACCCACTCGCTACCACTTCGGAGTCACCTAGTGCAG”, the binding signal is 8210 fluorescence intensity (a.u.).

On to “ACCTTTTTCTTTGTTTGTTTTCTGTTATTGAAGGGATTATCGGAGTCACCTAGTGCAG”, for which the binding signal is 13100 fluorescence intensity (a.u.).

As to “GCTCCTCGCCGTCCTTCACGGCCTCGACGTGCAGCGCCGCCGGAGTCACCTAGTGCAG”, the binding signal was 8580 fluorescence intensity (a.u.).

“TCCTGATTCCCCGAATTATACCGTCCAGTTGCTCTCCTCCCGGAGTCACCTAGTGCAG”: the binding signal was 8890 fluorescence intensity (a.u.).

Turning to “CCACCCTTTTGTTTGTATATAGTCAGTGAGTATGTTCGATCGGAGTCACCTAGTGCAG”, the binding signal was 8360 fluorescence intensity (a.u.).

Consider “ACTGGTATTTTTGCGTCGATTTTGGACTTGTAGTCTTTGTCGGAGTCACCTAGTGCAG”, for which the binding signal was 10100 fluorescence intensity (a.u.).

Turning to “GCAAATGACTTAAGTGGTACAATTCTGCTCTTTTCTCTCTCGGAGTCACCTAGTGCAG”, the binding signal is 9350 fluorescence intensity (a.u.).

“AGTTATACTTCTACATCATTAATTTGTTTGACCATACGACCGGAGTCACCTAGTGCAG”: the binding signal is 9120 fluorescence intensity (a.u.).

As to “CGCCCATGAAAATGGCCTGTTTCCCGGCTCGTCTACCGTCCGGAGTCACCTAGTGCAG”, the binding signal is 8090 fluorescence intensity (a.u.).

“GTCCAGGTGGGGTCCACCCGCGCCTTATCCTCAGCCACGACGGAGTCACCTAGTGCAG”: the binding signal was 9360 fluorescence intensity (a.u.).

For the sequence “TCCTTCTCTCAGACTCTCACTCCACTCCACTCTATTAATCCGGAGTCACCTAGTGCAG”, the binding signal was 9680 fluorescence intensity (a.u.).

Turning to “TAGCTCTTGTACTATGACAGTTTTACTGATGTACCCCGGGCGGAGTCACCTAGTGCAG”, the binding signal was 14600 fluorescence intensity (a.u.).

Turning to “TCCTTTCTTTTGTAGGCACTTTTCTATTCAGCTCTCTTGTCGGAGTCACCTAGTGCAG”, the binding signal is 9220 fluorescence intensity (a.u.).

On to “CTGATGCTCTCACTCACCACTGTAAACTAGCTTGTTCTTACGGAGTCACCTAGTGCAG”, for which the binding signal was 9290 fluorescence intensity (a.u.).

Take “CCGGCGCGACGCGAGTGCTCTTTTCCCGCGCTTTTTTTTCCGGAGTCACCTAGTGCAG”: the binding signal is 10800 fluorescence intensity (a.u.).

On to “TTTCAAGCACAACTTTTCTTTTTATATTTGCACAATTTTTCGGAGTCACCTAGTGCAG”, for which the binding signal was 10000 fluorescence intensity (a.u.).

With “GCCATCTCGTCTCCACCATTTACCAGGACAATGCCTTTAACGGAGTCACCTAGTGCAG”, the binding signal was 10800 fluorescence intensity (a.u.).

As to “AGAGCCCAGATGTTTACTTGTTCTACCACTTCAACTCATGCGGAGTCACCTAGTGCAG”, the binding signal was 8120 fluorescence intensity (a.u.).

“CCCTTTGCTGATGTGCTCGCCTGCGCTTTGACCACCGCTTCGGAGTCACCTAGTGCAG”: the binding signal was 11100 fluorescence intensity (a.u.).

Take “TCATCTGATTCCTGCGTTTTTCCTGTGGTCCAATCAAACGCGGAGTCACCTAGTGCAG”: the binding signal was 8720 fluorescence intensity (a.u.).

Take “CCTCATCCAATCCCAGCCGTCCATCCACCATCCAACGCCTCGGAGTCACCTAGTGCAG”: the binding signal was 11500 fluorescence intensity (a.u.).

On to “TATGGACAGATTTTTCACATTTTGATGCTCTCTACCGATCCGGAGTCACCTAGTGCAG”, for which the binding signal is 9650 fluorescence intensity (a.u.).

“ACCTGGTCACCCTGCGATCTTCTGCTTTGTGAATAATAAGCGGAGTCACCTAGTGCAG”: the binding signal was 11400 fluorescence intensity (a.u.).

Consider “CACAATCCACCTCCAATTCGATACAGGGAGGGTCCATTTGCGGAGTCACCTAGTGCAG”, for which the binding signal was 9220 fluorescence intensity (a.u.).

Take “ACTAATTAGCAGTTCCTTTTTCATTGTAATTTATTTGTCGCGGAGTCACCTAGTGCAG”: the binding signal was 8890 fluorescence intensity (a.u.).

On to “AGTAGTCTTTTGTCTCTTCTTTATTTTAGTTTTTTTTTCTCGGAGTCACCTAGTGCAG”, for which the binding signal is 12100 fluorescence intensity (a.u.).

With “CGCTGACGCCATCCACGCTTTCGTTTCCTTCCATTTTAGACGGAGTCACCTAGTGCAG”, the binding signal was 12600 fluorescence intensity (a.u.).

On to “CCTGTCCGTGTCCCGCCTACGAATTGCCGCCACGCCGATCCGGAGTCACCTAGTGCAG”, for which the binding signal was 11300 fluorescence intensity (a.u.).

Regarding “ATATATCCATGCGAACTTCGCTCCAATAGTGAATTTTATCCGGAGTCACCTAGTGCAG”, the binding signal was 8900 fluorescence intensity (a.u.).

Turning to “GCCTCATTCATCGATGAGAACATATTCTATTTTCTCGAGACGGAGTCACCTAGTGCAG”, the binding signal is 8190 fluorescence intensity (a.u.).

As to “TCATTCACCATCGATTCCTCTCTCGGCTGCTTGCCTTCTCCGGAGTCACCTAGTGCAG”, the binding signal is 11300 fluorescence intensity (a.u.).

As to “TCCTTTTGTCTTCCTCTAAACAAATTCTCTCTTAAGCTTTCGGAGTCACCTAGTGCAG”, the binding signal is 8060 fluorescence intensity (a.u.).

In the case of “GATGGCTACCTAGCTGACACGCAACGCCGGCCTCCGGATCCGGAGTCACCTAGTGCAG”, the binding signal is 10600 fluorescence intensity (a.u.).

Consider “GGGTGGGTGGGGCGGTGCTTTCCTGGAGATGGGAGAGTGGCGGAGTCACCTAGTGCAG”, for which the binding signal was 23000 fluorescence intensity (a.u.).

As to “ACATTCACATTCACGACCACATTCACCGCCACGACACTGGCGGAGTCACCTAGTGCAG”, the binding signal was 9460 fluorescence intensity (a.u.).

Regarding “CTCCTCGCACCACCGGCTTCGCCTCCATCCGGCGAGTCCACGGAGTCACCTAGTGCAG”, the binding signal was 8330 fluorescence intensity (a.u.).

With “GGTGTGGTAGGTGATGAGATTCAATGAGATGCTAGCTGCGCGGAGTCACCTAGTGCAG”, the binding signal is 8820 fluorescence intensity (a.u.).

On to “CTGGCCGGCGCGCGCGCGGGCGGGCGGGTTGTTCGCGATGCGGAGTCACCTAGTGCAG”, for which the binding signal is 8220 fluorescence intensity (a.u.).

Consider “AGGCCCTTCTACTCCTTTGGCTCTTGTTGCTTCTGGTATGCGGAGTCACCTAGTGCAG”, for which the binding signal is 11100 fluorescence intensity (a.u.).

With “ACCTATATGCAGCCCCTTCGAATATGTCCTGAGATTATTTCGGAGTCACCTAGTGCAG”, the binding signal was 9230 fluorescence intensity (a.u.).

Turning to “ATTTGTCGGTCCACCTCTATTTCACGCCAACTATTTTATGCGGAGTCACCTAGTGCAG”, the binding signal is 8240 fluorescence intensity (a.u.).

With “ACACAAACTCCCAACTTTTCCGTCACATCGTTCCAATTTCCGGAGTCACCTAGTGCAG”, the binding signal was 9700 fluorescence intensity (a.u.).

For “CCGCCGTCGACCGTCTCTTCCGCGGCCTCCTCGCCGGTAACGGAGTCACCTAGTGCAG”, the binding signal was 9160 fluorescence intensity (a.u.).

On to “GGAGTTTGTTTGTTTCGTTTTCCACACGCACGTTTCCCAACGGAGTCACCTAGTGCAG”, for which the binding signal was 12900 fluorescence intensity (a.u.).

As for “TCTCGGCTCGCAATGCTTTTTGGAGTTTTGTTTCTCTCCCCGGAGTCACCTAGTGCAG”, the binding signal was 10200 fluorescence intensity (a.u.).

On to “CCATTCATCTTTTTTATTTTTTTTTTGCAAATATATAAAACGGAGTCACCTAGTGCAG”, for which the binding signal was 8400 fluorescence intensity (a.u.).

Take “CCATCCGTATCCGCTCCGTTTTCATCCCTGCTCGTCTGCCCGGAGTCACCTAGTGCAG”: the binding signal was 8610 fluorescence intensity (a.u.).

As to “CGCTATATAACTCAGCCCGCGCGATCCCCGCACCAACCTCCGGAGTCACCTAGTGCAG”, the binding signal was 8480 fluorescence intensity (a.u.).

With “GCTCGCCATCGCCACCGTCGTTCACACCACACCACCTGCTCGGAGTCACCTAGTGCAG”, the binding signal was 9680 fluorescence intensity (a.u.).

Regarding “TCTTCCACGCCTACTCCCGGTTTACGCGGTTTTTCTCACTCGGAGTCACCTAGTGCAG”, the binding signal was 10800 fluorescence intensity (a.u.).

For the sequence “TTGGCCGGGTCTCTTGCGTTTGCATGCAACTACCTCTACTCGGAGTCACCTAGTGCAG”, the binding signal was 8990 fluorescence intensity (a.u.).

Take “TTTGAATTCGTGTGCGTTGCTGTACTATACTTGTGATGATCGGAGTCACCTAGTGCAG”: the binding signal was 8290 fluorescence intensity (a.u.).

As for “ATGGTTTGGATTCCTGCACAAATTTGATTGCATGCCTTCCCGGAGTCACCTAGTGCAG”, the binding signal is 8660 fluorescence intensity (a.u.).

Take “TTGACACCGTTGACTTTTTAGCACATGTTTGACCGTTCGTCGGAGTCACCTAGTGCAG”: the binding signal was 35800 fluorescence intensity (a.u.).
